In PubChem BioAssay AID847 (SRMLSC, 2007):
Hit rate of the full screen: of about 41,000 compounds, about 190 (0.46%) were called active. Inconclusive results, whose numbers are uncertain, are shown with a selection of clear calls.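 Rule for the calls: active = viability at or below the median of all test compounds minus 3 SD, in both replicates if run twice (cut at about 45% in these data); inconclusive = duplicate replicates that disagree with each other; inactive = viability above that cutoff in every replicate.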

test: SK-BR-3 proliferation inhibitors, primary screen, cell-based, human, 24 h (AID 847); conditions: SK-BR-3 viability, CellTiter-Glo ATP luminescence, at 10 µM, hits give low values;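 note: 100% = median untreated cell wells and 0% = median positive control drug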

Row | Structure (SMILES) | viability
1 | CCCCC(=O)Nc1ccc(C(=O)N2CCN(C)CC2)cc1 | inactive: 92.9%
2 | O=C(Oc1ccccc1)c1cccc2cccnc12 | inconclusive: 67.8%
3 | COCc1nnc(NC(=O)c2ccc(S(=O)(=O)N(C)C3CCCCC3)cc2)o1 | active: 26.6%
4 | CCN(CC)c1ccc2cc(NC(=O)CCC(=O)O)c(=O)oc2c1 | active: 42.8%
5 | O=C(CSc1nnc(-c2ccncc2)n1Cc1ccco1)c1ccc(Cl)cc1 | inconclusive: 53.7%
6 | COc1ccc(CC(=O)Nc2cccc(-c3nnc(-c4cccc(C)c4)o3)c2)cc1OC | inconclusive: 52.3%
7 | C=CS(=O)(=O)c1ccc(Oc2ccc(S(=O)(=O)C=C)cc2)cc1 | inconclusive: 126%
8 | O=C(Cc1cccs1)NCC1CCCO1 (stereo not given) | active: 34.9%
9 | CCOC(=O)C1=C(C)N(CCO)C(=O)NC1c1cccc(O)c1 (stereo not given) | inactive: 79.2%
10 | COc1cc(-c2nc(-c3ccc(NC(=O)c4ccc5c(c4)OCO5)cc3)no2)cc(OC)c1OC | inconclusive: 44.3%
11 | CCOC(=O)CS(=O)(=O)c1nc(-c2ccccc2)cc(C(F)(F)F)n1 | inconclusive: 94.4%
12 | O=C(Nc1ccccc1NC(=O)NC1CCCCC1)NC1CCCCC1 | inconclusive: 61%
13 | CCOC(=O)N1CCN(C(=O)c2ccc3c(=O)n(Cc4ccccc4)c(=S)[nH]c3c2)CC1 | inactive: 85.1%
14 | O=C(Nc1cccc(-c2nc3ccccc3[nH]2)c1)c1cccc(NC(=O)c2ccco2)c1 | inconclusive: 31.5%
15 | COc1cccc(C2C=C(c3ccc(OC)cc3OC)Nc3nnnn32)c1 (stereo not given) | inconclusive: 60.6%
16 | COCC(C)NC(=O)CCS(=O)(=O)c1nc(-c2ccc(OC)cc2)cc(C(F)(F)F)n1 (stereo not given) | inconclusive: 76%
17 | Cc1cc(SCC(=O)c2ccccc2)nc(C)n1 | inactive: 73.8%
18 | CCCS(=O)(=O)c1nnnn1-c1cccc(OC)c1 | inconclusive: 48.6%
19 | Cc1ccc(SCc2cc(=O)[nH]c(N3CCN(Cc4ccc5c(c4)OCO5)CC3)n2)cc1 | inconclusive: 76.2%
20 | CCCCCn1c(=O)[nH]c2cc(C(=O)NCCCN3CCC(C)CC3)ccc2c1=O | inactive: 111%
21 | CCOC(=O)C(C(C)=O)c1c(Br)c(O)c(O)c2c(C(=O)c3ccc(C)cc3)coc12 (stereo not given) | inconclusive: 68.3%
22 | COc1ccc(Nc2nc(N3CCCC3)nc3ccccc23)c(OC)c1 | inconclusive: 53.9%
23 | N=c1c(C(=O)NCc2ccc(F)cc2)cc2c(=O)n3ccccc3nc2n1Cc1ccco1 | inconclusive: 52.6%
24 | CCCOc1ccc(C2C(C(=O)c3ccco3)=C(O)C(=O)N2CCCn2ccnc2)cc1 (stereo not given) | inactive: 74.3%
25 | O=S(=O)(c1ccc(F)cc1)N(CCO)CC(O)Cn1c2ccccc2c2ccccc21 (stereo not given) | inconclusive: 64.1%

A different layout for some results above.
CCCCC(=O)Nc1ccc(C(=O)N2CCN(C)CC2)cc1
  viability: inactive: 92.9%
O=C(Oc1ccccc1)c1cccc2cccnc12
  viability: inconclusive: 67.8%

(cont.)

Row | Structure (SMILES) | viability
26 | CCCCN(C)S(=O)(=O)c1ccc(C(=O)Nc2nnc(CSC)o2)cc1 | active: 43.4%
27 | O=c1cc(-c2c(F)c(F)c(F)c(F)c2F)oc2c(F)c(F)c(F)c(F)c12 | active: 33.6%
28 | CC(=O)OCCNC(=O)c1cc2ccccc2oc1=O | inactive: 93.1%
29 | Cc1ccc(-n2c(SCC(=O)Nc3ccc4c(c3)OCO4)nnc2-c2cccs2)cc1 | inconclusive: 33.4%
30 | CCCCc1nnc(NC(=O)C=C(C)C)s1 | inconclusive: 74.1%
31 | CNC(=O)c1ccccc1NC(=O)c1cccc(S(=O)(=O)N2CCC(C)CC2)c1 | active: 43.1%
32 | O=S(=O)(CCSc1nc2ccccc2o1)c1nc2ccccc2s1 | inconclusive: 63.3%
33 | O=C(OCC(=O)N1CCc2ccccc21)c1cccnc1 | active: 40.8%
34 | CCn1c2ccccc2c2cc(C3C(C#N)=C(N)Oc4n[nH]c(COC)c43)ccc21 (stereo not given) | inconclusive: 46.9%
35 | CS(=O)c1nc(-c2ccc(Br)cc2)cc(-c2ccccc2)c1C#N (stereo not given) | inconclusive: 40.6%
36 | CCN(CC)c1ccc(-c2nn3c(-c4n[nH]c5c4CCC5)nnc3s2)cc1 | inconclusive: 49.1%
37 | COC(=O)c1sc(N2C(=O)c3oc4ccccc4c(=O)c3C2c2cccs2)nc1C (stereo not given) | inconclusive: 51.9%
38 | CCCC(=O)N1CCN(c2ccc(NC(=O)c3cc4ccccc4o3)cc2Cl)CC1 | active: 6.25%
39 | CCOC(=O)C(C(=O)OCC)c1cc(Br)c2noc3c2c1C(=O)c1ccccc1-3 | active: 25.8%
40 | Cc1cc(C)c2cc(CN(Cc3ccco3)C(=O)NCc3ccccc3)c(=O)[nH]c2c1 | active: 37.1%
41 | Cc1ccc(-c2nn3c(C)nnc3s2)cc1NC(=O)c1ccc(-c2ccc(Cl)cc2Cl)o1 | inconclusive: 50.2%
42 | CNc1oc(-c2ccc(OCc3ccccc3)cc2)nc1C#N | inactive: 115%
43 | COc1ccc(S(=O)(=O)N2CCC(C(=O)NCCC3=CCCCC3)CC2)cc1OC | inactive: 94.7%
44 | Cc1cc2oc(C(=O)N(Cc3ccco3)C3CCS(=O)(=O)C3)cc(=O)c2cc1Cl (stereo not given) | inactive: 92.8%
45 | CCN(CC)c1ccc2c(Cl)c(Br)c(=O)oc2c1 | inconclusive: 60.9%
46 | COc1ccccc1N1CCN(CC(=O)Nc2cc(C)nn2-c2nc(C)cc(C)n2)CC1 | inactive: 79.2%
47 | CSc1nc2c(c(-c3ccc(O)cc3)c1C#N)CCC2 | inconclusive: 61.1%
48 | COC(=O)c1ccccc1NC(=O)C1CC(=O)N(C2CCCCC2)C1 (stereo not given) | inactive: 84.8%
49 | C=CCn1c(SCc2nc3ccccc3c(=O)[nH]2)nnc1-c1cc2cc(Cl)ccc2o1 | inconclusive: 56.2%
50 | COc1ccc(-c2cc(C(F)(F)F)nc(S(=O)(=O)CCC(=O)N3CCOCC3)n2)cc1 | inconclusive: 56.4%

Arranged by formula weight (rising): some entries from above
Row | Structure (SMILES) | viability
20 | CCCCCn1c(=O)[nH]c2cc(C(=O)NCCCN3CCC(C)CC3)ccc2c1=O | inactive: 111%
43 | COc1ccc(S(=O)(=O)N2CCC(C(=O)NCCC3=CCCCC3)CC2)cc1OC | inactive: 94.7%
29 | Cc1ccc(-n2c(SCC(=O)Nc3ccc4c(c3)OCO4)nnc2-c2cccs2)cc1 | inconclusive: 33.4%
